Earlier results on one compound are cited in patent US20260000657A1, “ANTI-ANGIOGENIC THERAPY AS TREATMENT FOR BENIGN UTERINE DISORDERS” (STICHTING AMSTERDAM UMC, priority 2022, published 2026).

The structures appear in SMILES notation.

For the data set, the system named is tamoxifen-induced adenomyosis murine model. To be noted: treatment started at day 6; cited from earlier work.

In the case of `COc1ccc2cc([C@H](C)C(=O)O)ccc2c1` [naproxen], the Vessel density entry is “significant reduction in vessel density”.
